Reference: PMC8039524
No constants are given. Whether binding was seen depends on the method and setting. Binding seen in cells or lysates may run through a third protein. Some binding calls cover weakened binding; strength is not graded here.

Protein sequences, listed by entry. Tags and fused reporters are not part of them.
UniProt Q3V6T2: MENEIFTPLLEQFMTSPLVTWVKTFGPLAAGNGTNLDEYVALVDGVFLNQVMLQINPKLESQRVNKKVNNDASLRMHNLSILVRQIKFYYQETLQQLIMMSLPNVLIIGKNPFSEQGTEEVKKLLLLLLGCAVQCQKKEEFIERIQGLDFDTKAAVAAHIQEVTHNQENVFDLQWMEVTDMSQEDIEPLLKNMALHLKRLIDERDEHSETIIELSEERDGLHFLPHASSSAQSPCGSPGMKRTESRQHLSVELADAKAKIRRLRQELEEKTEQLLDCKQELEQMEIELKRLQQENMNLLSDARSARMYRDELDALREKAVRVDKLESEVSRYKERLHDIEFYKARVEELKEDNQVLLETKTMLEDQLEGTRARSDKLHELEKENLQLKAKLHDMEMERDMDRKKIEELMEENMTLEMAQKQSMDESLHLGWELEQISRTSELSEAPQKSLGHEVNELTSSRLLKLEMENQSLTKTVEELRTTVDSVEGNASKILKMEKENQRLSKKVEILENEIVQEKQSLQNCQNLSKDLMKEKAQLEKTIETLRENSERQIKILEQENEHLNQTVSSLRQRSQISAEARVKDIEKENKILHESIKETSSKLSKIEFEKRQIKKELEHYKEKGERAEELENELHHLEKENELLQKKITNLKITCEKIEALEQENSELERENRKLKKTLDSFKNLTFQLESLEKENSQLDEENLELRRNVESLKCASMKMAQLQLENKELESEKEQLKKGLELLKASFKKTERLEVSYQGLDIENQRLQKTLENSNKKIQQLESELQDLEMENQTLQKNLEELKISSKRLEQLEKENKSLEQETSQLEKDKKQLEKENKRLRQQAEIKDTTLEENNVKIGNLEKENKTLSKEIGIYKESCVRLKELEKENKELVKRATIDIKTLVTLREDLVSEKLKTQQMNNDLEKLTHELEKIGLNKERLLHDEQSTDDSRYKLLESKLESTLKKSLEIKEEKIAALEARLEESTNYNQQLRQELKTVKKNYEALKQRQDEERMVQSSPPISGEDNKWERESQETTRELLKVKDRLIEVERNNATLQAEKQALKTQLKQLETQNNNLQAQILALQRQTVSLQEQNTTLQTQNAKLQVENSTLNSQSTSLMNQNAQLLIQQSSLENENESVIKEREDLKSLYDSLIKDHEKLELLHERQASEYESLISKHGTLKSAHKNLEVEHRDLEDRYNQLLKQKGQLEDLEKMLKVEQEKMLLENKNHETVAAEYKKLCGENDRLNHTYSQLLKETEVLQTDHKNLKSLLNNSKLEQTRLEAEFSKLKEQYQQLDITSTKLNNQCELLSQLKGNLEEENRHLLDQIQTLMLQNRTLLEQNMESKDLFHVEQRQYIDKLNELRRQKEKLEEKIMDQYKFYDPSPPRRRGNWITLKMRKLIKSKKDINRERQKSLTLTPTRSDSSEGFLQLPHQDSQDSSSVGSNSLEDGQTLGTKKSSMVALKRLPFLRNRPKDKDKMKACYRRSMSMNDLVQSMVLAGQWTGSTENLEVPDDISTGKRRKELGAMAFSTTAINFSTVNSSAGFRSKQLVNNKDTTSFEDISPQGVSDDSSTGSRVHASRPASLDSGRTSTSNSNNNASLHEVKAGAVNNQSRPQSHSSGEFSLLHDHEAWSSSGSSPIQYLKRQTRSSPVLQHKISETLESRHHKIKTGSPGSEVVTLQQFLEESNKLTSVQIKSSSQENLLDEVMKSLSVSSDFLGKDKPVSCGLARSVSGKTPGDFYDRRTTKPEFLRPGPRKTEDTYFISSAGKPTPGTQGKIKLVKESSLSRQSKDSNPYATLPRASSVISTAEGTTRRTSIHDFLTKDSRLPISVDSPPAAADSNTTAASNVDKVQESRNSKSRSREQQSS

Biological target: Girdin (girders of actin filament) (human (endogenous in BxPC-3 and PANC-1)) (UniProt Q3V6T2)
Test: co-IP; endogenous proteins in NP40 lysates (1000 ug) of BxPC-3 and PANC-1 cells; overnight at 4°C with relevant antibodies bound to Glutathione Sepharose beads; anti-Girdin antibodies in IPs, blotting with P62 antibodies

binding: binds
Substance: P62/SQSTM1 (Sequestosome-1) (from UniProt Q13501 1-440)
